# According to publication PMC9296525:
# Protein sequences, listed by entry. Tags and fused reporters are not part of them. Residues count along the entry.
# UniProt P56958: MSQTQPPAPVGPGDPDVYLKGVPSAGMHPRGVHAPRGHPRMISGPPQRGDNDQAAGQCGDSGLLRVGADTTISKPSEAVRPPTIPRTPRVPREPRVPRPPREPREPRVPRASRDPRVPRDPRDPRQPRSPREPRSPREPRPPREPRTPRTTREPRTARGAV
# UniProt Q14790, residues 217-374: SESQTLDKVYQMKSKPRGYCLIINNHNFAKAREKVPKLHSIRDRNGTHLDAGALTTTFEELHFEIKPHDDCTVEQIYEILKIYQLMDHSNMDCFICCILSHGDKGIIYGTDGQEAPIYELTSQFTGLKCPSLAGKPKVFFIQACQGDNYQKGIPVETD
# Results are given in words; binding and its absence hold for the method and conditions named. Binding seen in cells or lysates may run through a third protein. Some results given as binding are weak or reduced against the parent protein; the word gives no strength.
# Molecular target: HSV-1 tegument protein Us11 (HSV-1 strain F) (UniProt P56958)
# Test: co-IP; lysate of THP-1 cells infected with HSV-1 (MOI 50, 18 h p.i.) or mock-infected; anti-Us11 monoclonal antibody pre-adsorbed on protein A-Sepharose beads, overnight at 4 °C; lysis buffer 20 mM Tris-HCl pH 8, 200 mM NaCl, 1% Nonidet P-40; blot with anti-caspase-8 (12F5)
substance,measurement,value
caspase-8 p18 cleaved fragment (from UniProt Q14790 217-374) (domain or fragment),binding,binds
